Measured data: PubChem BioAssay AID1259258 (Sanger Institute, 2017)
Here is a random part of 160 reagents. 40 of all reagents (25%) were called active. 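Each row is one of four siRNAs per gene; a gene counts as confirmed only when several of its siRNAs show synergy.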 Unmarked entries are inactive. Further read-outs or replicates are left out here. Not stated in the record: the amount of reagent, the time to read-out.

Assay: 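Kinase silencing that boosts cell killing by anchor cancer drugs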 (follow-up of hits)
System: human SW48 colorectal cancer cells
Reagent: single siRNA against human genes
Challenge: anchor drug cetuximab 5 µg/ml, trametinib 10 nM or BYL719 1 µM, or DMSO vehicle alone; assay length not stated
Read-out: 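Cell viability after siRNA plus DMSO, cetuximab 5 µg/ml, trametinib 10 nM or BYL719 1 µM, scaled to non-targeting pool 2 and replicate-averaged; synergy score weighs combined against single effects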
Reading the numbers: synergy score with trametinib and synergy score with BYL719 and synergy score with cetuximab: higher = stronger synergy, more killing than expected
Active means: 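Any one of the three anchor drugs giving a synergy value over 0.10 makes the siRNA a hit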

With knock-down of NR2F2 (nuclear receptor subfamily 2 group F member 2) [SID134229233], the record shows synergy score with trametinib 0.0222; synergy score with BYL719 = -0.085; synergy score with cetuximab -0.169.
Knock-down of NR2F2 (nuclear receptor subfamily 2 group F member 2) [SID134229234] resulted in: synergy score with trametinib -0.11; synergy score with BYL719 = -0.134; synergy score with cetuximab -0.00677.
With knock-down of NR2F2 (nuclear receptor subfamily 2 group F member 2) [SID134229235], the record shows synergy score with trametinib -0.0759; synergy score with BYL719 = -0.0113; synergy score with cetuximab -0.0578.
For NR2F2 (nuclear receptor subfamily 2 group F member 2) [SID134229236], the values are synergy score with trametinib 0.181 (active); synergy score with BYL719 = 0.0641; synergy score with cetuximab -0.105.
After knock-down of MAPK4 (mitogen-activated protein kinase 4) [SID56476079] the results were synergy score with trametinib 0.083; synergy score with BYL719 = -0.0118; synergy score with cetuximab 0.0613.
MAPK4 (mitogen-activated protein kinase 4) [SID56476080] showed synergy score with trametinib 0.0353; synergy score with BYL719 = -0.111; synergy score with cetuximab -0.102.
Against MAPK4 (mitogen-activated protein kinase 4) [SID56476081], the values are synergy score with trametinib -0.0521; synergy score with BYL719 = -0.0701; synergy score with cetuximab -0.127.
After knock-down of MAPK4 (mitogen-activated protein kinase 4) [SID56476082], the record shows synergy score with trametinib 0.0298; synergy score with BYL719 = 0.0258; synergy score with cetuximab 0.0334.

Limited to “synergy score with cetuximab”, for 4 of the entries above:
NR2F2 (nuclear receptor subfamily 2 group F member 2) [SID134229233] = -0.169
NR2F2 (nuclear receptor subfamily 2 group F member 2) [SID134229234] = -0.00677
NR2F2 (nuclear receptor subfamily 2 group F member 2) [SID134229235] = -0.0578
NR2F2 (nuclear receptor subfamily 2 group F member 2) [SID134229236] = -0.105 (active)

Continued:
EPHA6 (EPH receptor A6) [SID56477259] gave synergy score with trametinib 0.0776; synergy score with BYL719 = -0.0416; synergy score with cetuximab -0.0259.
EPHA6 (EPH receptor A6) [SID56477260] showed synergy score with trametinib 0.101 (active); synergy score with BYL719 = -0.00179; synergy score with cetuximab -0.0499.
Depletion of EPHA6 (EPH receptor A6) [SID56477261] resulted in: synergy score with trametinib 0.17 (active); synergy score with BYL719 = -0.0101; synergy score with cetuximab 0.125.
Against EPHA6 (EPH receptor A6) [SID56477262], the entry reads synergy score with trametinib -0.159; synergy score with BYL719 = 0.0571; synergy score with cetuximab -0.000673.
For PIK3CA [SID56475149], the entry reads synergy score with trametinib 0.251 (active); synergy score with BYL719 = -0.0603; synergy score with cetuximab 0.132.
Silencing of PIK3CA [SID56475150] came out at: synergy score with trametinib 0.0113; synergy score with BYL719 = -0.163; synergy score with cetuximab -0.0442.
For PIK3CA [SID135611211], the entry reads synergy score with trametinib 0.205 (active); synergy score with BYL719 = -0.0718; synergy score with cetuximab 0.028.
After knock-down of PIK3CA [SID135611212], the record shows synergy score with trametinib -0.0832; synergy score with BYL719 = -0.292; synergy score with cetuximab 0.0328.
Against CRIM1 (cysteine rich transmembrane BMP regulator 1) [SID134243173], the values are synergy score with trametinib -0.00114; synergy score with BYL719 = -0.214; synergy score with cetuximab -0.274.
Against CRIM1 (cysteine rich transmembrane BMP regulator 1) [SID134243174], the values are synergy score with trametinib -0.0295; synergy score with BYL719 = -0.132; synergy score with cetuximab -0.192.
For CRIM1 (cysteine rich transmembrane BMP regulator 1) [SID134243175], the values are synergy score with trametinib -0.0265; synergy score with BYL719 = 0.0586; synergy score with cetuximab -0.0557.
With knock-down of CRIM1 (cysteine rich transmembrane BMP regulator 1) [SID134243176] the results were synergy score with trametinib 0.0853; synergy score with BYL719 = -0.172; synergy score with cetuximab -0.0596.
GRK5 (G protein-coupled receptor kinase 5) [SID56476519] showed synergy score with trametinib -0.0534; synergy score with BYL719 = 0.0259; synergy score with cetuximab -0.0362.
For GRK5 (G protein-coupled receptor kinase 5) [SID56476520] the deposit lists synergy score with trametinib -0.273; synergy score with BYL719 = -0.163; synergy score with cetuximab -0.136.
GRK5 (G protein-coupled receptor kinase 5) [SID56476521] showed synergy score with trametinib 0.274 (active); synergy score with BYL719 = 0.106; synergy score with cetuximab 0.242.
Silencing of GRK5 (G protein-coupled receptor kinase 5) [SID56476522] gave: synergy score with trametinib -0.0291; synergy score with BYL719 = 0.0309; synergy score with cetuximab 0.0488.
